{"sequences": {"note": "Amino acid sequences for entries named in this document (tags omitted). A change or cut given only in a name is not applied to a line headed by its entry.", "UniProt O75935, whole entry": "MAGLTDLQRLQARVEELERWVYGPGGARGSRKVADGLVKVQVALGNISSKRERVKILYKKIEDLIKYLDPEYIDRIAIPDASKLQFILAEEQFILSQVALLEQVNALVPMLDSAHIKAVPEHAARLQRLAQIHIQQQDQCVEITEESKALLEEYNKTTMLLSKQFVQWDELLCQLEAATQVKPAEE", "UniProt O60493, whole entry": "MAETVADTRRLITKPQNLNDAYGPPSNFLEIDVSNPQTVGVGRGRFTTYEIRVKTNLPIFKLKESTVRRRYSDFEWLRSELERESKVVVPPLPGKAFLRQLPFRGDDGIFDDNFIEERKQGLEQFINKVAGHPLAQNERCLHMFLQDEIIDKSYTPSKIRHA", "UniProt O95297": "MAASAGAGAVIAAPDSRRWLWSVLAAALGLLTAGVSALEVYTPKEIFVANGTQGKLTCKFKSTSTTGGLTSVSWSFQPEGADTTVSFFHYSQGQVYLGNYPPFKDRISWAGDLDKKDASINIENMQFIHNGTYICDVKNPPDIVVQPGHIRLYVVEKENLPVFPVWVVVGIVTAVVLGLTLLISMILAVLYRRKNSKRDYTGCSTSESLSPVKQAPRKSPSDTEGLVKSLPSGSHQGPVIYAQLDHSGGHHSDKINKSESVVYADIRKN", "UniProt O75554": "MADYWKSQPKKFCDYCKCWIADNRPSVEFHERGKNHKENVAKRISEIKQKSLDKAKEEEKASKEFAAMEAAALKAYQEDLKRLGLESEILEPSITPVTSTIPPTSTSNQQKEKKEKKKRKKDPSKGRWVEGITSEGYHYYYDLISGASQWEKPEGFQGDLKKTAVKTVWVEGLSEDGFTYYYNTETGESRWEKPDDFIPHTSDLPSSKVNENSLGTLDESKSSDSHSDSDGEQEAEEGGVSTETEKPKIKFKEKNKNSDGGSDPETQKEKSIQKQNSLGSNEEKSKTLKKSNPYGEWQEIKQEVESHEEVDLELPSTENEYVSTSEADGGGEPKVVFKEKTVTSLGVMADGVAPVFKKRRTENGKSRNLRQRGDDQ", "UniProt O60942": "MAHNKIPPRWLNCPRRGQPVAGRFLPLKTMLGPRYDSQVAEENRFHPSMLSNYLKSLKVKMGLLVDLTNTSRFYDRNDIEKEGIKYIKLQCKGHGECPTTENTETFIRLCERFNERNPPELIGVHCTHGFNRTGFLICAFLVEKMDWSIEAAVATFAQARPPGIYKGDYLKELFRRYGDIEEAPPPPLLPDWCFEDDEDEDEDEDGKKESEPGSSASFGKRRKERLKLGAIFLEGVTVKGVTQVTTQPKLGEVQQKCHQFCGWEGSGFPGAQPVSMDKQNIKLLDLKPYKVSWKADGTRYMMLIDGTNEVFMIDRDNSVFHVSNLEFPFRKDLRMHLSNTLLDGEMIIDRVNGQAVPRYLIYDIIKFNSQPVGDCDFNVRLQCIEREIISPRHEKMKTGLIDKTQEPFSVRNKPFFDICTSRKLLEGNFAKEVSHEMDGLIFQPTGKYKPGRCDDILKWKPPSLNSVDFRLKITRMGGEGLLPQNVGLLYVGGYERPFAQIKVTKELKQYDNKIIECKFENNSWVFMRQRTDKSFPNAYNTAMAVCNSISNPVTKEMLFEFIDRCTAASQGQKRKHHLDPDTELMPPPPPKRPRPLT", "UniProt O75083": "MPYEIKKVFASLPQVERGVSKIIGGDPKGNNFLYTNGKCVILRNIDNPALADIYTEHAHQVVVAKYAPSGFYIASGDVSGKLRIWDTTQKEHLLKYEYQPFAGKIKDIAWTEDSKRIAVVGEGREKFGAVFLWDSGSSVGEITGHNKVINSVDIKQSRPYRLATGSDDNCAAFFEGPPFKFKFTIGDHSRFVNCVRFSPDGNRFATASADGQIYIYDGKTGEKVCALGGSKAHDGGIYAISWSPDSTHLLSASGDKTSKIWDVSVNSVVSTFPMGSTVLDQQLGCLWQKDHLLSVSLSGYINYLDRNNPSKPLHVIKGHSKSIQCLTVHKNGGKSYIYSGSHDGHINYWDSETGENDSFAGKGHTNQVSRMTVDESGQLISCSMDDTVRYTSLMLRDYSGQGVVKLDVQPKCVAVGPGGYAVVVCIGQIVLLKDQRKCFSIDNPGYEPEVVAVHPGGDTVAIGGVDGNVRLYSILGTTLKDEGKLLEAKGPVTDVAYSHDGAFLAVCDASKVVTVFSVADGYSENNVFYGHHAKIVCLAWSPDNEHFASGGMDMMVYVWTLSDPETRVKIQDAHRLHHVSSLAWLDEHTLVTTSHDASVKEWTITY", "UniProt O94900": "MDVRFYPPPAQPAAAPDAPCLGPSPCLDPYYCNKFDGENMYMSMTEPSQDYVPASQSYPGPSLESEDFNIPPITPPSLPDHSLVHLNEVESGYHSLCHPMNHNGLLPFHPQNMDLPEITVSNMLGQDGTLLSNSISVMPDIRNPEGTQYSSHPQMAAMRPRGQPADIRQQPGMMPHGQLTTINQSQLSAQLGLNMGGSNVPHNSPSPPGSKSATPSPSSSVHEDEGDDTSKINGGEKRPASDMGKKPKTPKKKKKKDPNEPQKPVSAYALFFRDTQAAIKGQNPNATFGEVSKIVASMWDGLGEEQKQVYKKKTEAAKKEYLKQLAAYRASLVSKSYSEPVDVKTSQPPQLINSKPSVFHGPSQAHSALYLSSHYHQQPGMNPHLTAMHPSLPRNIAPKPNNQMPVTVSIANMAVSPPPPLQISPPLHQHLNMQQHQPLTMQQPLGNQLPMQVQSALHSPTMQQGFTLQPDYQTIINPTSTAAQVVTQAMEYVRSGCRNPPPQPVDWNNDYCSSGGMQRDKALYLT", "UniProt O94766": "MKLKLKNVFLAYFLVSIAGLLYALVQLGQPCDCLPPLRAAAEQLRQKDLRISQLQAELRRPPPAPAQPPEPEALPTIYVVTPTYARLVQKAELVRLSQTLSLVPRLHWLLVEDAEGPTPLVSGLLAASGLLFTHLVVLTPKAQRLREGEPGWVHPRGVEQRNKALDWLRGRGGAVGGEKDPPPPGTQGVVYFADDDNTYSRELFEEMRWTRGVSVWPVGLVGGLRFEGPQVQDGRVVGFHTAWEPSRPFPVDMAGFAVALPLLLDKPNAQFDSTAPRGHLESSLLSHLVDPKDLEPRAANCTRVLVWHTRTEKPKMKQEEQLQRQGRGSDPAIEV", "UniProt O95352": "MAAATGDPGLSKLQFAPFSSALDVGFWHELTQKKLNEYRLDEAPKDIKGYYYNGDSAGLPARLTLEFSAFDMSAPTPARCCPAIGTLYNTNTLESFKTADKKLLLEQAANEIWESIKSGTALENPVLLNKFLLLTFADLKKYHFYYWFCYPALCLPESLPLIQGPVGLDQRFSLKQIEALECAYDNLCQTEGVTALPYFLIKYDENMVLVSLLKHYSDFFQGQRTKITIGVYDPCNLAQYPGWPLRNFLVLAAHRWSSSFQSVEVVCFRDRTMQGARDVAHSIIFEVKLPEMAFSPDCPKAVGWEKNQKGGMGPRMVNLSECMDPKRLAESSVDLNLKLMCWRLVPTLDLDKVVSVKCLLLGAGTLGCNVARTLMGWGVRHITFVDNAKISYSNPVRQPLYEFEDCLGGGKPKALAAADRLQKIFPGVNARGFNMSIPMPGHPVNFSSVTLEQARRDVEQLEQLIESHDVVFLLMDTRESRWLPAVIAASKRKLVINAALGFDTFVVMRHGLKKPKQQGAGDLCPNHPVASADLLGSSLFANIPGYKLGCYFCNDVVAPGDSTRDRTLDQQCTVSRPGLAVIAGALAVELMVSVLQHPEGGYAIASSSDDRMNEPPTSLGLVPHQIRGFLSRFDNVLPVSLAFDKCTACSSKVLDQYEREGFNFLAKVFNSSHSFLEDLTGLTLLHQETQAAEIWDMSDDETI", "UniProt O75037": "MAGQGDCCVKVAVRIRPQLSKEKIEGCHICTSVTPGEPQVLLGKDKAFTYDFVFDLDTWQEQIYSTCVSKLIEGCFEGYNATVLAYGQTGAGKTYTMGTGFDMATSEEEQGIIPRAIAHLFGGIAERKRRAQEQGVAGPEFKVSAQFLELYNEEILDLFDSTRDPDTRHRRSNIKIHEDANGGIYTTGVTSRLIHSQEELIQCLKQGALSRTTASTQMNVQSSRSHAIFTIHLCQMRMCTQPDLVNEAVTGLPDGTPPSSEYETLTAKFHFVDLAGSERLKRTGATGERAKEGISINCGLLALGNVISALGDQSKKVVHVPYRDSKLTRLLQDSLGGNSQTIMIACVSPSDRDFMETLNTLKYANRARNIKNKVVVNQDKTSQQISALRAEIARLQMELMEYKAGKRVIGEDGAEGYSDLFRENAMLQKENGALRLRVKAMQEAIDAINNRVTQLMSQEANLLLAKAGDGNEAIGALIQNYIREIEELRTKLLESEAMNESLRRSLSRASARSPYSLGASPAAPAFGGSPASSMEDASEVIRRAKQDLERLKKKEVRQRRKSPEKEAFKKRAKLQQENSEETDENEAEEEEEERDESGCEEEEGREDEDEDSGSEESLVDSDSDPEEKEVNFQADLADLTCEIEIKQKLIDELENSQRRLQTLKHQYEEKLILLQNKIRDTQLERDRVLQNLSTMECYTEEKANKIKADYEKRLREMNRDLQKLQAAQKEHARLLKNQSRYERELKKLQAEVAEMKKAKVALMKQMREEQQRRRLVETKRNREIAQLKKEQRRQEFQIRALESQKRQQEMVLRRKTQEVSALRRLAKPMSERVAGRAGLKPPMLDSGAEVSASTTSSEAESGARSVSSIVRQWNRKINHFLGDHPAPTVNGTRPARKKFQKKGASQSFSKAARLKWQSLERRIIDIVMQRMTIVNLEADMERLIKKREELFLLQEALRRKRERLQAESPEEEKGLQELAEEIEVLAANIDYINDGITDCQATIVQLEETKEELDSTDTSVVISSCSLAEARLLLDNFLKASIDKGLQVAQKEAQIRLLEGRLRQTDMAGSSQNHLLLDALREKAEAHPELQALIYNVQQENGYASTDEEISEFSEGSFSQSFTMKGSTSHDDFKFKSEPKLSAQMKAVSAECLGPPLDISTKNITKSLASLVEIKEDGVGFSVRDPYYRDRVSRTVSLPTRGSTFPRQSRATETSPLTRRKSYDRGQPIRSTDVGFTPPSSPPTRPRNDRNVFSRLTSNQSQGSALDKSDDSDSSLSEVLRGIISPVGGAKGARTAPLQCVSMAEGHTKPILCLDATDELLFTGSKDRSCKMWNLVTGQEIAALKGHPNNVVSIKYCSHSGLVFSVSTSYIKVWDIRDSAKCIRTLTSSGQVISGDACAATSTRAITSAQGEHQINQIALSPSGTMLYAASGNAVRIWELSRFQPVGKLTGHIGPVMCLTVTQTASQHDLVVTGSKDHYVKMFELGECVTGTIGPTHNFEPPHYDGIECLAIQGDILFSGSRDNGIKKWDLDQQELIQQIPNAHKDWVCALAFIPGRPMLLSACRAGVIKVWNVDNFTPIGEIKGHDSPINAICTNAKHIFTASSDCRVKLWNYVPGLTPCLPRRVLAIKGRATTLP", "UniProt O75348, whole entry": "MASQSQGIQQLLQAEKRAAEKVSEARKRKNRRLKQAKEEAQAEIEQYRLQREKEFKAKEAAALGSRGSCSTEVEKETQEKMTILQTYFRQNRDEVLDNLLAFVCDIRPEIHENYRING", "UniProt O94829": "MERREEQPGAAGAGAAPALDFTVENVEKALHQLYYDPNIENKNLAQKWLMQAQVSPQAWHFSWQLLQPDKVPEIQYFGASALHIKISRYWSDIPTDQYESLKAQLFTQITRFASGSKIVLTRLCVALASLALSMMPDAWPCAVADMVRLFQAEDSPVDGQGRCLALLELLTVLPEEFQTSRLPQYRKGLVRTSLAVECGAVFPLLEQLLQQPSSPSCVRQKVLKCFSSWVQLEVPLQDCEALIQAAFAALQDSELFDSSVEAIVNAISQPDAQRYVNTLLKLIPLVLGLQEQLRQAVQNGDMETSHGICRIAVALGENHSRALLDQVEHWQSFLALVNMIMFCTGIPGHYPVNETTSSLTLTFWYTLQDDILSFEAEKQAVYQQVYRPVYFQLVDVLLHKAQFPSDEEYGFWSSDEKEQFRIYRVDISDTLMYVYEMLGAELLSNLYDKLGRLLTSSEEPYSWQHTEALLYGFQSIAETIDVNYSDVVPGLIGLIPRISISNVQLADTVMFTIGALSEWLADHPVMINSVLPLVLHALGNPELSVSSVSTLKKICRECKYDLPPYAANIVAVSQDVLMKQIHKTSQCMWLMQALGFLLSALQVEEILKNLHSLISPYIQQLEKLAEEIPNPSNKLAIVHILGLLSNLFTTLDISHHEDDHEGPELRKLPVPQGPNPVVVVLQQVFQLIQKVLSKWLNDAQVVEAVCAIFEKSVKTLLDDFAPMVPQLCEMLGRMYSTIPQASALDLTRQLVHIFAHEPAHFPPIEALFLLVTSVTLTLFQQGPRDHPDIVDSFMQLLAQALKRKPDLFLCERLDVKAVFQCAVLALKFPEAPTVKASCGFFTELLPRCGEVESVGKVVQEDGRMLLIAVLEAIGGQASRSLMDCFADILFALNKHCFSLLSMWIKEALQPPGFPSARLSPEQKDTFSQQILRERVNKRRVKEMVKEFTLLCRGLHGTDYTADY"}, "source": "the supplement of paper PMC6411743", "note": "± gives the standard deviation of the averaged measurements. The entries are a selection whose mix differs from that of the whole data set.", "data": [{"compound": "Nc1ncnc2c1ncn2[C@@H]1O[C@H](COP(=O)(O)OP(=O)(O)OP(=O)(O)O)[C@@H](O)[C@H]1O [adenosine triphosphate]", "assay": "NP40-soluble protein abundance relative to vehicle (solubility fold change) (ratio); higher = more soluble protein in presence of ATP", "details": "concentration: 10mM", "procedure,_shortened": "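Jurkat crude lysate prepared with a Dounce homogeniser was treated at eight concentrations spanning 0.1 to 10 mM, 10 min at room temperature then 3 min at 37 °C. Solubilisation with 0.8% NP40 and benzonase and ultracentrifugation preceded TMT labelling of the supernatant for LC-MS/MS. Fold change against the detergent-processed vehicle was determined per replicate from vsn-normalised intensities, across three independent experiments.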", "values": [{"target": "UniProt O75935 and related entries", "NP40-soluble protein abundance": "0.859 ± 0.09"}, {"target": "UniProt O75145 and related entries", "NP40-soluble protein abundance": "0.936 ± 0.039"}, {"target": "GGCT (UniProt O75223)", "NP40-soluble protein abundance": "0.919 ± 0.026"}, {"target": "SNX3 (UniProt O60493)", "NP40-soluble protein abundance": "0.916 ± 0.046"}, {"target": "CCNT1 (UniProt O60563)", "NP40-soluble protein abundance": "1.69 ± 0.073"}, {"target": "UniProt O95297 and related entries", "NP40-soluble protein abundance": "0.866 ± 0.081"}, {"target": "UniProt O75190 and related entries", "NP40-soluble protein abundance": "1.13 ± 0.061"}, {"target": "UniProt O95248-4|G5E933 and related entries", "NP40-soluble protein abundance": "1.06 ± 0.032"}, {"target": "UniProt O94973 and related entries", "NP40-soluble protein abundance": "1.09 ± 0.055"}, {"target": "UniProt O75582 and related entries", "NP40-soluble protein abundance": "1.04 ± 0.036"}, {"target": "HIP1R (UniProt O75146)", "NP40-soluble protein abundance": "1.22 ± 0.039"}, {"target": "YEATS4 (UniProt O95619)", "NP40-soluble protein abundance": "1 ± 0.038"}, {"target": "UniProt O75554 and related entries", "NP40-soluble protein abundance": "1.142 ± 0.0023"}, {"target": "FARS2 (UniProt O95363)", "NP40-soluble protein abundance": "0.967 ± 0.032"}, {"target": "RNGTT (UniProt O60942)", "NP40-soluble protein abundance": "0.995 ± 0.041"}, {"target": "CCNK (UniProt O75909)", "NP40-soluble protein abundance": "1.16 ± 0.024"}, {"target": "MTRF1 (UniProt O75570)", "NP40-soluble protein abundance": "1.08 ± 0.13"}, {"target": "UniProt O75534 and related entries", "NP40-soluble protein abundance": "0.954 ± 0.04"}, {"target": "UniProt O75323", "NP40-soluble protein abundance": "0.958 ± 0.046"}, {"target": "WDR1 (UniProt O75083)", "NP40-soluble protein abundance": "0.912 ± 0.046"}, {"target": "UniProt O95475", "NP40-soluble protein abundance": "1.07 ± 0.086"}, {"target": "UniProt O60762 and related entries", "NP40-soluble protein abundance": "1.11 ± 0.053"}, {"target": "UniProt O94916 and related entries", "NP40-soluble protein abundance": "0.977 ± 0.04"}, {"target": "PRMT3 (UniProt O60678)", "NP40-soluble protein abundance": "1.01 ± 0.056"}, {"target": "POLR1A (UniProt O95602)", "NP40-soluble protein abundance": "1.25 ± 0.041"}, {"target": "UniProt O75486 and related entries", "NP40-soluble protein abundance": "1.18 ± 0.1"}, {"target": "WFS1 (UniProt O76024)", "NP40-soluble protein abundance": "1.09 ± 0.16"}, {"target": "TOX (UniProt O94900)", "NP40-soluble protein abundance": "0.815 ± 0.078"}, {"target": "PRKD3 (UniProt O94806)", "NP40-soluble protein abundance": "1.06 ± 0.069"}, {"target": "B3GAT3 (UniProt O94766)", "NP40-soluble protein abundance": "0.965 ± 0.023"}, {"target": "ATG7 (UniProt O95352)", "NP40-soluble protein abundance": "0.981 ± 0.032"}, {"target": "UniProt O75037 and related entries", "NP40-soluble protein abundance": "1.09 ± 0.047"}, {"target": "UniProt O60888 and related entries", "NP40-soluble protein abundance": "0.852 ± 0.11"}, {"target": "UniProt O95273 and related entries", "NP40-soluble protein abundance": "1.01 ± 0.043"}, {"target": "ATP6V1G1 (UniProt O75348)", "NP40-soluble protein abundance": "0.787 ± 0.13"}, {"target": "UniProt O95271 and related entries", "NP40-soluble protein abundance": "1.16 ± 0.059"}, {"target": "IPO13 (UniProt O94829)", "NP40-soluble protein abundance": "1.03 ± 0.18"}]}]}
